Assay results published in US4988691A (priority 1989, dated 1991).

Test system: Ca^++ receptors
Assay: displacement of 3H-nitrendipine from Ca++ receptors, rat brain membranes
Format: binding
Conditions: 3H-nitrendipine 1nM

With COC(=O)C1=C(C)NC(C)=C(C(=O)OC)C1c1ccccc1[N+](=O)[O-] [nifedipine, reference compound] the “Displacement activity at receptors of Ca++” value was 1.2.
